# Experimental data reported in the supplement of paper PMC8728848.
# Some of the results follow.
# How the values were obtained:
# Assay in all cases: glycan array binding signal (z-score within array); higher = stronger binding
# Settings in all cases: glycan notation: IUPAC condensed, linker removed
# [1] = target: Glc(b1-4)Glc
# Summary of the method: (§1)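 From the Consortium for Functional Glycomics database, 3228 arrays were curated, keeping only those whose protein sequence was available. Binding is given as a within-array Z-score averaged across arrays sharing a protein sequence and across linkers. Negative Z-scores can be read as non-binding.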
# [2] = target: Glc(b1-6)Glc
# Summary of the method: as §1
# [3] = target: GlcA(b1-3)Gal
# Summary of the method: as §1
# [4] = target: GlcA(b1-3)GlcNAc
# Summary of the method: as §1
# [5] = target: GlcA(b1-6)Gal
# Summary of the method: as §1
# [6] = target: GlcA3S(b1-3)Gal(b1-4)GlcNAc(b1-2)Man
# Summary of the method: as §1
# [7] = target: GlcA3S(b1-3)Gal(b1-4)GlcNAc(b1-3)Gal(b1-4)Glc
# Summary of the method: as §1
# [8] = target: GlcNAc(a1-3)Gal(b1-4)GlcNAc
# Summary of the method: as §1
# [9] = target: GlcNAc(a1-4)Gal(b1-3)GlcNAc
# Summary of the method: as §1
# [10] = target: GlcNAc(a1-4)Gal(b1-4)GalNAc
# Summary of the method: as §1
# [11] = target: GlcNAc(a1-4)Gal(b1-4)GlcNAc
# Summary of the method: as §1
# [12] = target: GlcNAc(a1-4)Gal(b1-4)GlcNAc(b1-3)Gal(b1-4)Glc
# Summary of the method: as §1
# [13] = target: GlcNAc(a1-4)Gal(b1-4)GlcNAc(b1-3)Gal(b1-4)GlcNAc
# Summary of the method: as §1
# [14] = target: GlcNAc(a1-4)Gal(b1-4)GlcNAc(b1-3)Gal(b1-4)GlcNAc(b1-3)Gal(b1-4)GlcNAc
# Summary of the method: as §1
# [15] = target: GlcNAc(a1-4)Gal(b1-4)GlcNAc(b1-3)Gal(b1-4)[Fuc(a1-3)]GlcNAc(b1-3)Gal(b1-4)[Fuc(a1-3)]GlcNAc
# Summary of the method: as §1
# [16] = target: GlcNAc(a1-6)Gal(b1-4)GlcNAc
# Summary of the method: as §1
# [17] = target: GlcNAc(b1-2)Gal(b1-3)GalNAc
# Summary of the method: as §1
# [18] = target: GlcNAc(b1-2)Man(a1-3)[GlcNAc(b1-2)Man(a1-6)]Man(b1-4)GlcNAc(b1-4)GlcNAc
# Summary of the method: as §1
# [19] = target: GlcNAc(b1-2)Man(a1-3)[GlcNAc(b1-2)Man(a1-6)]Man(b1-4)GlcNAc(b1-4)[Fuc(a1-6)]GlcNAc
# Summary of the method: as §1
# [20] = target: GlcNAc(b1-2)Man(a1-3)[GlcNAc(b1-4)][GlcNAc(b1-2)Man(a1-6)]Man(b1-4)GlcNAc(b1-4)GlcNAc
# Summary of the method: as §1
# [21] = target: GlcNAc(b1-2)Man(a1-3)[GlcNAc(b1-4)][GlcNAc(b1-2)Man(a1-6)]Man(b1-4)GlcNAc(b1-4)[Fuc(a1-6)]GlcNAc
# Summary of the method: as §1
# [22] = target: GlcNAc(b1-2)[GlcNAc(b1-4)]Man(a1-3)[GlcNAc(b1-2)Man(a1-6)]Man(b1-4)GlcNAc(b1-4)GlcNAc
# Summary of the method: as §1
# [23] = target: GlcNAc(b1-2)[GlcNAc(b1-4)]Man(a1-3)[GlcNAc(b1-4)][GlcNAc(b1-2)Man(a1-6)]Man(b1-4)GlcNAc(b1-4)GlcNAc
# Summary of the method: as §1
# [24] = target: GlcNAc(b1-2)[GlcNAc(b1-4)]Man(a1-3)[GlcNAc(b1-4)][GlcNAc(b1-2)[GlcNAc(b1-6)]Man(a1-6)]Man(b1-4)GlcNAc(b1-4)GlcNAc
# Summary of the method: as §1
# [25] = target: GlcNAc(b1-2)[GlcNAc(b1-4)]Man(a1-3)[GlcNAc(b1-4)][GlcNAc(b1-2)[GlcNAc(b1-6)]Man(a1-6)]Man(b1-4)GlcNAc(b1-4)[Fuc(a1-6)]GlcNAc
# Summary of the method: as §1
# [26] = target: GlcNAc(b1-2)[GlcNAc(b1-6)]Man(a1-6)[GlcNAc(b1-2)Man(a1-3)]Man(b1-4)GlcNAc(b1-4)GlcNAc
# Summary of the method: as §1
# [27] = target: GlcNAc(b1-2)[GlcNAc(b1-6)]Man(a1-6)[GlcNAc(b1-2)Man(a1-3)]Man(b1-4)GlcNAc(b1-4)[Fuc(a1-6)]GlcNAc
# Summary of the method: as §1
# [28] = target: GlcNAc(b1-2)[GlcNAc(b1-6)]Man(a1-6)[GlcNAc(b1-4)][GlcNAc(b1-2)Man(a1-3)]Man(b1-4)GlcNAc(b1-4)GlcNAc
# Summary of the method: as §1
# [29] = target: GlcNAc(b1-3)Fuc
# Summary of the method: as §1
# [30] = target: GlcNAc(b1-3)Gal
# Summary of the method: as §1
# [31] = target: GlcNAc(b1-3)Gal(b1-3)GalNAc
# Summary of the method: as §1
# [32] = target: GlcNAc(b1-3)Gal(b1-4)Glc
# Summary of the method: as §1
# [33] = target: GlcNAc(b1-3)Gal(b1-4)GlcNAc
# Summary of the method: as §1
# [34] = target: GlcNAc(b1-3)Gal(b1-4)GlcNAc(b1-2)Man(a1-3)[GlcNAc(b1-3)Gal(b1-4)GlcNAc(b1-2)Man(a1-6)]Man(b1-4)GlcNAc(b1-4)GlcNAc
# Summary of the method: as §1
# [35] = target: GlcNAc(b1-3)Gal(b1-4)GlcNAc(b1-2)Man(a1-3)[GlcNAc(b1-3)Gal(b1-4)GlcNAc(b1-2)Man(a1-6)]Man(b1-4)GlcNAc(b1-4)[Fuc(a1-6)]GlcNAc
# Summary of the method: as §1
# [36] = target: GlcNAc(b1-3)Gal(b1-4)GlcNAc(b1-2)[GlcNAc(b1-3)Gal(b1-4)GlcNAc(b1-6)]Man(a1-6)[GlcNAc(b1-3)Gal(b1-4)GlcNAc(b1-2)Man(a1-3)]Man(b1-4)GlcNAc(b1-4)GlcNAc
# Summary of the method: as §1
# [37] = target: GlcNAc(b1-3)Gal(b1-4)GlcNAc(b1-3)Gal(b1-4)GlcNAc
# Summary of the method: as §1
binder,measurement,setting,value
SabA (Helicobacter pylori) (protein) MGSSHHHHHHSSGLVPRGSHMENLYFQGEDNGFFVSAGYQIGEAVQMVKNTGELKNLNEKYEQLSQYLNQVASLKQSIQNANNIELVNSSLNYLKSFTNNNYNSTTQSPIFNAVQAVITSVLGFWSLYAGNYFTFFVGKKVGDSGQPASVQGNPPFKTIIENCSGIENCAMDQTTYDKMKKLAEDLQAAQTNSATKGNNLCALSGCAATDSTSNPPNSTVSNALNLAQQLMDLIANTKTAMMWKNIVISGVSNTSGAITSTNYPTQYAVFNNIKAMIPILQQAVTLSQSNHTLSASLQAQATGSQTNPKFAKDIYTFAQNQKQVISYAQDIFNLFNSIPAEQYKYLEKAYLKIPNAGSTPTNPYRQVVNLNQEVQTIKNNVSYYGNRVDAALSVARDVYNLKSNQAEIVTAYNDAKTLSEEISKLPHNQVNTKDIVTLPYDKNAPAAGQSNYQINPEQQSNLNQALAAMSNNPFKKVGMISSQNNNGA,glycan array binding signal (z-score),[1],-0.155
same,glycan array binding signal (z-score),[2],-0.052
same,glycan array binding signal (z-score),[3],-0.726
same,glycan array binding signal (z-score),[4],0.992
same,glycan array binding signal (z-score),[5],-0.216
same,glycan array binding signal (z-score),[6],-0.867
same,glycan array binding signal (z-score),[7],-0.243
same,glycan array binding signal (z-score),[8],-0.423
same,glycan array binding signal (z-score),[9],-0.175
same,glycan array binding signal (z-score),[10],-0.451
same,glycan array binding signal (z-score),[11],-0.254
same,glycan array binding signal (z-score),[12],-0.716
same,glycan array binding signal (z-score),[13],-0.512
same,glycan array binding signal (z-score),[14],-0.845
same,glycan array binding signal (z-score),[15],1.45
same,glycan array binding signal (z-score),[16],-0.582
same,glycan array binding signal (z-score),[17],0.113
same,glycan array binding signal (z-score),[18],-0.168
same,glycan array binding signal (z-score),[19],-0.091
same,glycan array binding signal (z-score),[20],-0.753
same,glycan array binding signal (z-score),[21],0.175
same,glycan array binding signal (z-score),[22],-0.287
same,glycan array binding signal (z-score),[23],1.31
same,glycan array binding signal (z-score),[24],-0.819
same,glycan array binding signal (z-score),[25],-0.545
same,glycan array binding signal (z-score),[26],-0.082
same,glycan array binding signal (z-score),[27],0.384
same,glycan array binding signal (z-score),[28],-0.832
same,glycan array binding signal (z-score),[29],-0.48
same,glycan array binding signal (z-score),[30],-0.461
same,glycan array binding signal (z-score),[31],-0.312
same,glycan array binding signal (z-score),[32],0.175
same,glycan array binding signal (z-score),[33],-0.33
same,glycan array binding signal (z-score),[34],-0.639
same,glycan array binding signal (z-score),[35],0.826
same,glycan array binding signal (z-score),[36],0.906
same,glycan array binding signal (z-score),[37],-0.43

# Another view of part of the listing above:
binder	measurement	setting	value
SabA (Helicobacter pylori) (protein) MGSSHHHHHHSSGLVPRGSHMENLYFQGEDNGFFVSAGYQIGEAVQMVKNTGELKNLNEKYEQLSQYLNQVASLKQSIQNANNIELVNSSLNYLKSFTNNNYNSTTQSPIFNAVQAVITSVLGFWSLYAGNYFTFFVGKKVGDSGQPASVQGNPPFKTIIENCSGIENCAMDQTTYDKMKKLAEDLQAAQTNSATKGNNLCALSGCAATDSTSNPPNSTVSNALNLAQQLMDLIANTKTAMMWKNIVISGVSNTSGAITSTNYPTQYAVFNNIKAMIPILQQAVTLSQSNHTLSASLQAQATGSQTNPKFAKDIYTFAQNQKQVISYAQDIFNLFNSIPAEQYKYLEKAYLKIPNAGSTPTNPYRQVVNLNQEVQTIKNNVSYYGNRVDAALSVARDVYNLKSNQAEIVTAYNDAKTLSEEISKLPHNQVNTKDIVTLPYDKNAPAAGQSNYQINPEQQSNLNQALAAMSNNPFKKVGMISSQNNNGA	glycan array binding signal (z-score)	[35]	0.826
same	glycan array binding signal (z-score)	[36]	0.906
